Measurements: patent US20210228515A1, “BENZOIC ACID OR A SALT AND DERIVATIVE THEREOF FOR USE IN PREVENTING OR TREATING ANTI-N-METHYL-D-ASPARTATE RECEPTOR ENCEPHALITIS” (EXCELSIOR PHARMATECH LABS, priority 2018, published 2021)
At least one structure is not confirmed: it was looked up by name or label, or the drawing left a doubt.

Experiment: Case treatment of a patient with confirmed anti-NMDAR encephalitis
Assay type: in vivo

| SMILES | response to antipsychotics (high doses: aripiprazole 20-30 mg, clozapine 300-500 mg, clozapine 500 mg plus paliperidone 9 mg, before the diagnosis was confirmed) | clinical improvement (IVIg and plasmaphoresis after pulse therapy with methylprednisolone, after two months of immunotherapy and antipsychotic treatment) |
| --- | --- | --- |
| CN1CCN(C2=Nc3cc(Cl)ccc3Nc3ccccc32)CC1 [clozapine] | very poor response |  |
| C[C@H]1C[C@@H]2[C@H]([C@@H](O)C[C@@]3(C)[C@H]2CC[C@]3(O)C(=O)CO)[C@@]2(C)C=CC(=O)C=C12 [methylprednisolone] |  | no remarkable clinical improvement |
